{"source": "the supplement of paper PMC3334620", "note": "In all, about 33,000 sequences were measured (“E-score (-0.5 to 0.5)”: median about -0.0034, highest 2% from about 0.25 on). This is one part of the list."}
{"biological_target": "T1, Yap3 (UniProt P38749)", "T1 sequence": "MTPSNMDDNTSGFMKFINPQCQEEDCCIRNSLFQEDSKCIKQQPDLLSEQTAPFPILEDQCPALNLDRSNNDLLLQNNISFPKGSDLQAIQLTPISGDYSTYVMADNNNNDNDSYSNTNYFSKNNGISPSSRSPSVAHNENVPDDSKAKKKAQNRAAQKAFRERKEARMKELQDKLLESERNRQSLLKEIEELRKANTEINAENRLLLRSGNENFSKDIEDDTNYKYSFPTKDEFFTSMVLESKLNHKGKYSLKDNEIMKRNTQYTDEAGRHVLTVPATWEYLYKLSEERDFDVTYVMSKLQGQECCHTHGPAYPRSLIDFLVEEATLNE", "assay": "PBM E-score (8-mer binding enrichment) (E-score (-0.5 to 0.5)); higher = stronger / more preferred TF binding", "conditions": "protein concentration: 100 nM; construct: GST-full length", "summary_of_the_method": "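Using PURExpress in vitro transcription/translation, GST-tagged yeast transcription factors were made in full-length or DNA-binding-domain form. These were applied at about 100-200 nM to double-stranded universal all-10-mer Agilent arrays, and bound protein was detected with fluorescent anti-GST. Scans were normalised with masliner before the Universal PBM Analysis Suite assigned E-scores to ungapped eight-base words pooled with their reverse complements.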"}
{"sequence": "GAAACAGA", "PBM E-score": 0.2}
{"sequence": "GGCCGGTA", "PBM E-score": -0.0931}
{"sequence": "TAAGGGTA", "PBM E-score": -0.0459}
{"sequence": "ATGCCGGA", "PBM E-score": -0.1}
{"sequence": "CAATAACC", "PBM E-score": 0.211}
{"sequence": "TCTCCCCA", "PBM E-score": -0.23}
{"sequence": "CCGGCTCA", "PBM E-score": 0.00949}
{"sequence": "ATGCCGAG", "PBM E-score": 0.0429}
{"sequence": "CGTATGAA", "PBM E-score": 0.239}
{"sequence": "ATGGACTA", "PBM E-score": 0.0451}
{"sequence": "AAACCCGC", "PBM E-score": 0.126}
{"sequence": "CTTCTTTA", "PBM E-score": 0.148}
{"sequence": "CACACGAA", "PBM E-score": 0.114}
{"sequence": "AAGGCGCG", "PBM E-score": -0.0685}
{"sequence": "ATTCCAAT", "PBM E-score": 0.0727}
{"sequence": "ATGCAATC", "PBM E-score": 0.0908}
{"sequence": "ACCTTCAG", "PBM E-score": -0.0617}
{"sequence": "GTAAATTA", "PBM E-score": 0.223}
{"sequence": "CAGGCCGC", "PBM E-score": -0.168}
{"sequence": "ATACCTTC", "PBM E-score": -0.0193}
{"sequence": "TGGTTACA", "PBM E-score": 0.0144}
{"sequence": "ACCAGAAG", "PBM E-score": -0.0369}
{"sequence": "ACAGACTA", "PBM E-score": -0.119}
{"sequence": "AAATTGGT", "PBM E-score": 0.244}
{"sequence": "ATTTCCGG", "PBM E-score": 0.205}
{"sequence": "GTGTGGCA", "PBM E-score": -0.0694}
{"sequence": "ATCTTCAG", "PBM E-score": 0.0835}
{"sequence": "CACCTTGG", "PBM E-score": -0.0567}
{"sequence": "GCAGGCTA", "PBM E-score": -0.231}
{"sequence": "ACGTGGGC", "PBM E-score": -0.154}
{"sequence": "CTGCCGGA", "PBM E-score": 0.0282}
{"sequence": "CTGCGAGC", "PBM E-score": 0.00087}
{"sequence": "AAATATCC", "PBM E-score": 0.219}
{"sequence": "ACGCCGAC", "PBM E-score": 0.0402}
{"sequence": "TCGGTTAA", "PBM E-score": 0.168}
{"sequence": "CGGGTGGA", "PBM E-score": -0.0997}
{"sequence": "ATTACGCC", "PBM E-score": 0.0197}
{"sequence": "ACTGAGAC", "PBM E-score": -0.0711}
{"sequence": "ATGGCTTC", "PBM E-score": -0.0247}
{"sequence": "GCAAGTAA", "PBM E-score": 0.188}
{"sequence": "CTCGATTC", "PBM E-score": 0.111}
{"sequence": "AACCGAAT", "PBM E-score": 0.0854}
{"sequence": "ATCTGTCA", "PBM E-score": 0.206}
{"sequence": "TCTGAACA", "PBM E-score": 0.0958}
{"sequence": "GAAACGTC", "PBM E-score": -0.0528}
{"sequence": "ATGGTCTA", "PBM E-score": -0.0886}
{"sequence": "CCAATAGG", "PBM E-score": -0.00099}
{"sequence": "CTATTAGA", "PBM E-score": -0.0988}
{"sequence": "AAGGGTTG", "PBM E-score": 0.0891}
{"sequence": "ACTAGTCA", "PBM E-score": -0.088}
{"sequence": "CTCGCATA", "PBM E-score": -0.0164}
{"sequence": "ATACAGAT", "PBM E-score": 0.11}
{"sequence": "AAATATCA", "PBM E-score": 0.187}
{"sequence": "CCCGATAC", "PBM E-score": -0.0724}
{"sequence": "GTGCCAAA", "PBM E-score": -0.144}
{"sequence": "AAGTTACC", "PBM E-score": 0.141}
{"sequence": "CTACGAAC", "PBM E-score": 0.138}
{"sequence": "CCGGCCCA", "PBM E-score": -0.252}
{"sequence": "GTTGAGGA", "PBM E-score": -0.113}
{"sequence": "GTGTGCGA", "PBM E-score": -0.0583}
{"sequence": "CGGTCGAC", "PBM E-score": -0.0836}
{"sequence": "AAAATAAA", "PBM E-score": 0.204}
{"sequence": "CCGCATTA", "PBM E-score": 0.114}
{"sequence": "ATACCCTC", "PBM E-score": -0.0594}
{"sequence": "CTTTGTGC", "PBM E-score": 0.0343}
{"sequence": "TCCACTCA", "PBM E-score": -0.0431}
{"sequence": "ATCGAGTA", "PBM E-score": 0.0073}
{"sequence": "AGTTATGA", "PBM E-score": 0.0243}
{"sequence": "CGGCGAAC", "PBM E-score": -0.0186}
{"sequence": "ATTCAAAA", "PBM E-score": 0.162}
{"sequence": "CGGTTGTA", "PBM E-score": -0.139}
{"sequence": "TGATGCCA", "PBM E-score": 0.0576}
{"sequence": "CTTTAACA", "PBM E-score": 0.147}
{"sequence": "GTTAATTA", "PBM E-score": 0.262}
{"sequence": "AGAGTGAT", "PBM E-score": 0.129}
{"sequence": "CGCGGCGA", "PBM E-score": 0.136}
{"sequence": "AACGGACG", "PBM E-score": -0.0678}
{"sequence": "CTACTTTC", "PBM E-score": 0.109}
{"sequence": "ATGTTCTC", "PBM E-score": 0.0154}
{"sequence": "ATGTCAGC", "PBM E-score": 0.0482}
{"sequence": "ACGGTTCT", "PBM E-score": -0.146}
{"sequence": "AGCCGGGA", "PBM E-score": -0.0455}
{"sequence": "AAACACAG", "PBM E-score": 0.17}
{"sequence": "TCGTCAAA", "PBM E-score": 0.12}
{"sequence": "CCCGTTAC", "PBM E-score": 0.0116}
{"sequence": "AAGCTCCG", "PBM E-score": -0.00442}
{"sequence": "AGCGAAGA", "PBM E-score": -0.042}
{"sequence": "CTACGGTA", "PBM E-score": -0.0404}
{"sequence": "CTCTTCAA", "PBM E-score": -0.245}
{"sequence": "ACGAACTA", "PBM E-score": 0.103}
{"sequence": "TCGGTCCA", "PBM E-score": -0.0281}
{"sequence": "GTACTGTA", "PBM E-score": -0.0686}
{"sequence": "ATGGCGAC", "PBM E-score": -0.0167}
{"sequence": "ACTAATAG", "PBM E-score": 0.244}
{"sequence": "GATTTTCC", "PBM E-score": 0.0437}
{"sequence": "AAACTGAC", "PBM E-score": -0.0546}
{"sequence": "ATCCCCTC", "PBM E-score": -0.223}
{"sequence": "CGTACGAA", "PBM E-score": 0.0973}
{"sequence": "AACTGCCT", "PBM E-score": 0.0407}
{"sequence": "CTTGTTAA", "PBM E-score": 0.022}
{"sequence": "AAACTGTC", "PBM E-score": 0.0726}
{"sequence": "CGGGGTGC", "PBM E-score": -0.228}
{"sequence": "AAACTGCT", "PBM E-score": -0.156}
{"sequence": "CCTGCTTA", "PBM E-score": -0.00519}
{"sequence": "CTGCTGTA", "PBM E-score": -0.0979}
{"sequence": "GAGATGTA", "PBM E-score": 0.14}
{"sequence": "GAAGAAGA", "PBM E-score": 0.00074}
{"sequence": "ACCACCTG", "PBM E-score": -0.0502}
{"sequence": "GCAGTCAC", "PBM E-score": -0.0834}
{"sequence": "GTGACTCA", "PBM E-score": 0.0409}
{"sequence": "ACGCGCAA", "PBM E-score": 0.114}
{"sequence": "CAAACCGC", "PBM E-score": -0.109}
{"sequence": "AAGGGCTC", "PBM E-score": -0.216}
{"sequence": "GATAAAGA", "PBM E-score": 0.196}
{"sequence": "ACAGATTG", "PBM E-score": 0.0126}
{"sequence": "CACTCATA", "PBM E-score": 0.107}
{"sequence": "CGATGCCA", "PBM E-score": -0.195}
{"sequence": "AATTGTTG", "PBM E-score": 0.0159}
{"sequence": "CGGCTGGC", "PBM E-score": -0.275}
{"sequence": "CCGTAACA", "PBM E-score": 0.126}
{"sequence": "AAAGAAGG", "PBM E-score": -0.0833}
{"sequence": "AGCATTTG", "PBM E-score": 0.0343}
{"sequence": "ATAATGTC", "PBM E-score": 0.195}
{"sequence": "GCGAAAGC", "PBM E-score": -0.144}
{"sequence": "AGTACAGG", "PBM E-score": 0.103}
{"sequence": "AATCAAGT", "PBM E-score": 0.0618}
{"sequence": "AACTATGT", "PBM E-score": -0.039}
{"sequence": "ACTAGAAT", "PBM E-score": 0.158}
{"sequence": "CCGGGGAG", "PBM E-score": -0.222}
{"sequence": "ACCAGGGA", "PBM E-score": -0.136}
{"sequence": "ATGCACAT", "PBM E-score": -0.0185}
{"sequence": "ACTTCCAA", "PBM E-score": -0.0542}
{"sequence": "ATTTGTCA", "PBM E-score": 0.313}
{"sequence": "ATGTAAGA", "PBM E-score": 0.277}
{"sequence": "ACACGACG", "PBM E-score": 0.0804}
{"sequence": "GTAGGCAC", "PBM E-score": -0.164}
{"sequence": "CTACACAG", "PBM E-score": -0.0361}
{"sequence": "CAAGTCGG", "PBM E-score": 0.0991}
{"sequence": "AACGATTC", "PBM E-score": 0.0792}
{"sequence": "ACTTTCGG", "PBM E-score": -0.0572}
{"sequence": "AATTTGGA", "PBM E-score": 0.0508}
{"sequence": "CAAAGTAA", "PBM E-score": 0.0789}
{"sequence": "ACTTCAAA", "PBM E-score": -0.0614}
{"sequence": "ACCCTTCG", "PBM E-score": -0.174}
{"sequence": "CCATCCGG", "PBM E-score": -0.153}
{"sequence": "CGATATAA", "PBM E-score": 0.2}
{"sequence": "CCGGAAAA", "PBM E-score": 0.106}
{"sequence": "AGAATTGG", "PBM E-score": 0.0708}
{"sequence": "ACCAATGC", "PBM E-score": 0.113}
{"sequence": "AGGCTGCG", "PBM E-score": 0.00491}
{"sequence": "CCTGGGCC", "PBM E-score": -0.348}
{"sequence": "TAATTTCA", "PBM E-score": 0.309}
{"sequence": "ACCGAGTG", "PBM E-score": -0.179}
{"sequence": "TCATAAGA", "PBM E-score": 0.081}
{"sequence": "TACATCCA", "PBM E-score": 0.076}
{"sequence": "CGCGGTAC", "PBM E-score": 0.0798}
{"sequence": "TCATCCCA", "PBM E-score": -0.0661}
{"sequence": "AGTATTCA", "PBM E-score": 0.113}
{"sequence": "GACTCTAA", "PBM E-score": 0.0306}
{"sequence": "CCAGTAAA", "PBM E-score": 0.0139}
{"sequence": "CCGGATAG", "PBM E-score": 0.103}
{"sequence": "GGGGCATA", "PBM E-score": -0.0601}
{"sequence": "AATGCAGC", "PBM E-score": -0.189}
{"sequence": "ACCAAAAG", "PBM E-score": 0.147}
{"sequence": "ACGCCCGA", "PBM E-score": -0.142}
{"sequence": "CGAAAAAG", "PBM E-score": 0.162}
{"sequence": "CCTGTAAG", "PBM E-score": -0.0739}
{"sequence": "GCATCAAC", "PBM E-score": 0.139}
{"sequence": "AAAATTTA", "PBM E-score": 0.0414}
{"sequence": "ACTTCCCA", "PBM E-score": 0.084}
{"sequence": "GTGGAAGA", "PBM E-score": -0.0717}
{"sequence": "CGACCGGA", "PBM E-score": -0.231}
